Several values for one entry are separate records, joined by “and”; a condition that tells them apart may be missing. Identical values can stand only once. The campaign covered roughly 350,000 compounds. About 220 (0.063%) were called active. The inconclusive results got no clear call from the source; some entries with a clear call stand among them for comparison. Calls follow the shape of the dose curve; as a rule, active = well fitted activation curve with a large enough effect; inconclusive = small, poorly fitted or top-dose-only effect; inactive = no such curve, though single readings can be large or run the other way. Where the call is inconclusive, the potency comes from a doubtful curve fit.
Test: qHTS for Activators of Integrin-Mediated Alleviation for Muscular Dystrophy; also: nearly all actives have a fitted effect of over 60% in size;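 as to activation: 100% = response of the positive control SU9516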
Conditions: alpha7betagal myoblasts, beta-gal FDG fluorescence, 48 h; activation: at 38.3 µM (top of the series)
Method in brief: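 alpha7betagal+/- myoblasts (passage 13, 250/well) treated 48 h at 37C with compounds at 1:260 dilution of DMSO stock. Lysed, then beta-galactosidase activity read as FDG fluorescence (ex 480/em 540) after 30 min, with pre-read for autofluorescence.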
Potency is read from the fitted curve at half-maximal effect.

Structure (SMILES)	Potency	activation
CC(C)C/C=C1\CCc2c([nH]c3ccccc23)C1=O	inconclusive: 5.01 µM [activator, single point]	
CCOC(=O)CN(C(=O)CSc1nnc2c(n1)[nH]c1ccccc12)c1ccccc1	inactive	
CC(C)CN(C(=O)c1ccc(C(F)(F)F)cc1)c1c(N)n(CC(C)C)c(=O)[nH]c1=O	inconclusive: 2.24 µM [activator, full curve, poor fit]	
COc1cc(SC)ccc1C(=O)Nc1nc(C)cc(C)n1	inconclusive: 5.01 µM [activator, single point]	
CCOc1ccc(CCNC(=O)CSCC(=O)Nc2ccc(OC)cc2)cc1OCC	inconclusive: 28.2 µM [activator, single point]	
COc1ccc(NC(=S)Nc2ccccc2SC)c(OC)c1	inconclusive: 12.6 µM [activator, single point]	
CC1CN(CCc2ccccc2)C(C)C/C1=N/O (stereo unspecified)	inconclusive: 3.98 µM [activator, single point]	
Cc1ccccc1S(=O)(=O)Cc1ccc(C(=O)N2CCN(c3cccc(C)c3C)CC2)o1	inactive	
Cc1cn(CC(=O)NCCc2c[nH]c3ccccc23)c(=O)[nH]c1=O	inactive	
CC(C)(C)OC(=O)NC(Cc1ccccc1)C(=O)N1CCCC1C(=O)O (stereo unspecified)	inconclusive: 2.51 µM [activator, single point]	
Cc1ccc(CNC(=O)C2CCCN(S(C)(=O)=O)C2)cc1 (stereo unspecified)	inconclusive: 15.8 µM [activator, single point]	
COC(=O)CC1C(=O)NCCN1C(=O)CSc1nnnn1-c1ccc(Cl)cc1 (stereo unspecified)	inactive	
C/C(=N\NC(=O)c1c(Br)cnn1C)c1ccc(NC(=O)c2ccc(F)cc2)cc1	inconclusive: 5.01 µM [activator, single point]	
CSc1ccccc1C(=O)Nc1ccc2c(c1)CCC2	inconclusive: 14.1 µM [activator, single point]	
CCCCN(C(=O)CCC(=O)OCC(=O)NCc1ccccc1)c1c(N)n(CCC)c(=O)[nH]c1=O	inconclusive: 5.62 µM [activator, partial curve, poor fit]	
O=C(N/N=C/c1ccco1)c1cc(-c2ccccc2)nc2ccccc12	inconclusive: 10 µM [activator, partial curve, poor fit]	
Cc1ccccc1-c1nc(S(=O)(=O)c2ccccc2)c(NCCCN2CCOCC2)o1	inactive	
Cc1cc(NC(=O)c2ccccc2)n(-c2ccccc2)n1	inconclusive: 2.51 µM [activator, single point]	
CCOC(=O)C1=C(COC(=O)CCOc2ccc(OCC)cc2)NC(=O)NC1C (stereo unspecified)	inconclusive: 3.55 µM [activator, single point]	
NNC(=O)c1cccc(O)c1	inconclusive: 10 µM [activator, partial curve, poor fit]	
CCC(C(=O)NCc1ccncc1)c1ccccc1 (stereo unspecified)	inconclusive: 28.2 µM [activator, single point]	
COc1ccc(N=Nc2cc(C)ccc2O)cc1	inconclusive: 5.01 µM [activator, single point]	
COc1ccc(N2CCN(C(=O)CSc3nnc(CNc4ccccc4)o3)CC2)cc1	inconclusive: 5.01 µM [activator, single point]	
O=C(Cc1ccc(Cl)cc1)Nc1ccc(S(=O)(=O)N2CCOCC2)cc1	inactive	

Structure (SMILES)	Potency	activation
COCCNC(=O)C1CCC(=O)N1S(=O)(=O)c1ccc(C)cc1 (stereo unspecified)	inconclusive: 1.41 µM [activator, partial curve, poor fit]	
c1ccc(-c2nn[nH]n2)nc1	inconclusive: 3.98 µM [activator, partial curve]	
C/C(CC(=O)Nc1ccc2c(c1)OCCO2)=N\NC(=O)C(=O)Nc1ccccc1C	inactive	
CN1CCN(S(=O)(=O)c2ccc(C(F)(F)F)cc2)C(c2ccccc2)C1 (stereo unspecified)	inconclusive: 1.78 µM [activator, single point]	
CC(=O)N[C@@H](Cc1c[nH]c2ccccc12)C(=O)OCC(=O)Nc1ccc(Cl)c(S(=O)(=O)N(C)C)c1	inconclusive: 22.4 µM [activator, single point]	
O=C(NC(=S)Nc1ccc(Oc2ccc(Cl)cc2)cc1)c1ccccc1	inactive	
COc1cc(/C=C2/C(=N)N3C=CSC3=NC2=O)ccc1OCCCOc1c(C)cccc1C	inactive	
CCN1CCc2c(OCc3ccccc3)cccc2C1=O	inconclusive: 5.01 µM [activator, single point]	
C=CCn1c(CNS(=O)(=O)c2ccc(Br)cc2)nnc1SC	inconclusive: 2.82 µM [activator, single point]	
Cc1cccc(C(C)C)c1-n1nnnc1-c1ccccc1	inconclusive: 11.2 µM [activator, partial curve, poor fit]	
c1cncc(-c2nnc3sc(-c4ccco4)nn23)c1	inactive	
Cn1nc(C(=O)NCC(=O)Nc2ccc(F)c(F)c2)ccc1=O	inactive	
COc1ccc(CCNC(=O)Cn2c(=O)oc3cc(Cl)ccc32)cc1OC	inconclusive: 1.78 µM [activator, partial curve, poor fit]	
O=C(Cc1ccccc1[N+](=O)[O-])NNC(=O)c1ccncc1	inconclusive: 5.01 µM [activator, partial curve, poor fit]	
CC/C(=N\NC(=O)c1cccnc1)c1ccc2c(c1)OCCO2	inconclusive: 2.82 µM [activator, single point]	
Nc1cccc2c1C(=O)N(CCOc1ccccc1F)C2=O	inconclusive: 3.55 µM [activator, single point]	
CSc1ccc(/C=N/n2c(C)nnc2C)cc1	inconclusive: 2.82 µM [activator, single point]	
CN(C(=O)C(C)(C)C)C1c2c(ccc3ccccc23)OCC1CO (stereo unspecified)	inactive	
CCC(C)NC(=O)CN(c1ccc(OC)cc1)S(=O)(=O)c1ccccc1 (stereo unspecified)	inconclusive: 5.01 µM [activator, single point]	
CN(C)/C=C/C(=O)c1ccc(Br)cc1	inconclusive: 5.01 µM [activator, single point]	
O=C(c1ccccc1)N1CCN(S(=O)(=O)c2cccs2)CC1	inconclusive: 12.6 µM [activator, partial curve, poor fit]	
Cc1ccc(-n2c(SCC(=O)N3CCOCC3)nc(O)c(Cc3ccccc3)c2=O)cc1	inactive	
Cn1c(C(O)c2ccc(Cl)cc2)nc(Cl)c1Cl (stereo unspecified)	inconclusive: 3.98 µM [activator, single point]	
CCOc1cc(-c2cc(-c3ccc(C)cc3)nc(N)c2C#N)ccc1O	inactive	

Structure (SMILES)	Potency	activation
O=C(OCC(=O)N1CCc2ccccc21)c1c2c(nc3ccccc13)CCCCC2	inactive	
CCOC(=O)N1CCN(C2CCCN(C(=O)c3cccc(Cl)c3)C2)CC1 (stereo unspecified)	inconclusive: 10 µM [activator, single point]	
COCCN(C(=O)CNC(=O)c1ccco1)C(C(=O)NC1CCCCC1)c1cccnc1 (stereo unspecified)	inconclusive: 22.4 µM [activator, single point]	
Cc1ccc(C)c(NC(=O)C(c2ccccc2)N2CCN(CC(=O)N3CCOCC3)CC2)c1 (stereo unspecified)	inconclusive: 28.2 µM [activator, single point]	
C/C(=N/NC(=O)CNC(=O)c1cccnc1)c1ccc([N+](=O)[O-])cc1	inconclusive: 2.51 µM [activator, partial curve, poor fit]	
c1ccc(CN2CCC(Nc3nc(-c4cccnc4)nc4ccccc34)CC2)cc1	inactive	
COc1ccc(-c2nn(-c3ccccc3)cc2C(=O)Nc2cccc(C(=O)O)c2)cc1[N+](=O)[O-]		inconclusive: -43.4% [activator]
CS(=O)(=O)Nc1ccc(C(=O)CC(=O)Nc2ccc([N+](=O)[O-])cc2)cc1	inconclusive: 5.01 µM [activator, single point]	
Cc1occc1C(=O)N/N=C/c1ccc(N(C)C)cc1	inactive	
Cc1ccc(-c2cn(-c3ccccc3)c3[n+]2CCCS3)cc1		inconclusive: -42.5% [activator] and inconclusive: -57.8% [activator]
COC(=O)Nc1ccc(N2CCOCC2)c(S(=O)(=O)N2CCOCC2)c1	inconclusive: 4.47 µM [activator, single point]	
O=C(NCCc1ccc(Cl)cc1)C(=O)c1c[nH]c2ccccc12	inconclusive: 5.01 µM [activator, single point]	
COc1cccc(C(=O)Nc2nnc(SCC(=O)NC3CCCC3)s2)c1	inconclusive: 2 µM [activator, full curve, poor fit]	
Cn1c(O)c(N=Nc2nc(-c3ccccc3)cs2)c2ccccc21	inactive	
CCC(C)(C)c1nnc(NC(=O)c2cccc([N+](=O)[O-])c2)s1	inconclusive: 15.8 µM [activator, partial curve, poor fit]	
CC1=CSC2=NS(=O)(=O)CCN12	inconclusive: 5.01 µM [activator, single point]	
Cc1ccc(/C=N/NC(=O)c2ccncc2)s1	inactive	
COc1ccc(OC)c(NC(=O)CCN2CCN(CCO)CC2)c1	inconclusive: 3.16 µM [activator, single point]	
COc1ccc(C2=NN(C(=O)c3ccncc3)C(c3ccccc3O)C2)cc1 (stereo unspecified)	inactive	
COc1cc(C#Cc2c(C=O)n(C)c3ccccc23)cc(OC)c1	inactive	
CCCN1C(=O)S/C(=C\c2ccc(N3CCOCC3)o2)C1=O	inactive	
CSCc1ccc(C(=O)Nc2cccc(C)c2C)cc1	inactive	
O=C(CSc1ccc(Cl)cc1)NC(=O)c1ccccc1	inconclusive: 10 µM [activator, single point]	
